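Methionyl-tRNA synthetase (putative), Leishmania donovani (UniProt E9BF75). Primary screen of methionyl-tRNA synthetase; the read-out is not stated. The test concentration is not given. Values are per cent inhibition. Size under these conditions: about 68,000 compounds, about 24 of them at 50% or above in at least one test.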

Chains of the proteins cited; added tags and fusions are not shown.
UniProt E9BF75, entry or part of it: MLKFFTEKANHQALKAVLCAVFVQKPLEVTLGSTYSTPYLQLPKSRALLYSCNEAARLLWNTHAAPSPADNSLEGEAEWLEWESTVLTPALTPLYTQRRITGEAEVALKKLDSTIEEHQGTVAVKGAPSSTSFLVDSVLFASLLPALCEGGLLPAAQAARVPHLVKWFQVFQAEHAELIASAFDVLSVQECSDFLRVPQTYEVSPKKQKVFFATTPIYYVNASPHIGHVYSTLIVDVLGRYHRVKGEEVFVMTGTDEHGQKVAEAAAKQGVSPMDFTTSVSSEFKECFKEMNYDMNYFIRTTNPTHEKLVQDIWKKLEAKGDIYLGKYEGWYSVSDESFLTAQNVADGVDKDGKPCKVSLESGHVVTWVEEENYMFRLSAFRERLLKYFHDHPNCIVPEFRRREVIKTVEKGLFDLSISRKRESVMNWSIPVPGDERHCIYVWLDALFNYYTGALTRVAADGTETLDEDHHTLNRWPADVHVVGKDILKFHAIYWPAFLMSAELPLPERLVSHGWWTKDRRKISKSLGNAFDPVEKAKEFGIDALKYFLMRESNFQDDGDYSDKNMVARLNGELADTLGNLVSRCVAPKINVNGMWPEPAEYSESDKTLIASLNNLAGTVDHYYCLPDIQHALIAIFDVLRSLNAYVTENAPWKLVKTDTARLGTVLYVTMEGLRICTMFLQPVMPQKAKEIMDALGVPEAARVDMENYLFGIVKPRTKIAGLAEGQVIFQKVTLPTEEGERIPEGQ

All values are in %.
How 0% and 100% were set is not recorded. Most values in the screen are low, and negative values occur.
This is an unselected part of the compounds tested.

| # | SMILES | inhibition |
|---|---|---|
| 1 | `COc1cccc2c1OCC(C(=O)N1CCN(C3CCCC3)C(=O)C1)C2` (stereo unspecified) | 9.365% |
| 2 | `CCC(=O)N1CCC2(CC1)COc1ccccc1S(=O)(=O)N(C)C2` | 10.04% |
| 3 | `COCCNC(=O)c1ccc(NCc2c(C)noc2C)cc1Cl` | 18.06% |
| 4 | `CC(C)n1ccnc1C1CCCN(c2ccnc3ccccc23)C1` (stereo unspecified) | 17.56% |
| 5 | `CCNc1cc2c(nn1)CCN(C(=O)CC1CCCC1)C2` | 25.63% |
| 6 | `COc1ccc(CC(=O)N2CCC(c3nnc4n3CCC4)CC2)cc1F` | 9.699% |
| 7 | `COc1ccc(C)cc1CN1CCOC(Cn2nc(C)nc2C)C1` (stereo unspecified) | 19.43% |
| 8 | `CNC(=O)CCc1cc(C)nc(C2CCN(C(=O)CN(C)C)CC2)c1` | 16.2% |
| 9 | `CN(C)CC(=O)N1CC2(CCN(S(=O)(=O)c3ccccc3)C2)C1` | 11.76% |
| 10 | `CC[C@@H](CO)NC(=O)c1cc(COc2ccc(OC)cc2Cl)[nH]n1` | 16.72% |
| 11 | `COCC(=O)N1CCC(c2nc3ccc(-c4ccccc4)cn3n2)CC1` | 13.5% |
| 12 | `Cc1ccc2cc(CNCCN3CCCC3)c(=O)[nH]c2c1` | 19.21% |
| 13 | `CC(=O)N1CCCC(c2nccnc2-c2ccc(CO)cc2)C1` (stereo unspecified) | 23.42% |
| 14 | `CC(C)N1CC2(CCC1=O)CCN(C(=O)c1cccc(F)c1F)CC2` | 2.174% |
| 15 | `CC(C)c1nc(S(=O)(=O)N2CCSc3ccccc32)c[nH]1` | 10.87% |
| 16 | `COCCN1CCC(C(=O)N(C)CCOc2ccc(C)cc2Cl)C1` (stereo unspecified) | 7.186% |
| 17 | `Cc1nn(C)c(C)c1CCC(=O)Nc1cccn(C)c1=O` | 18.11% |
| 18 | `Cc1cc(N)nc(C2(C)CCCN2C(=O)c2cnccn2)n1` (stereo unspecified) | -1.294% |
| 19 | `CC(C)(C)NC(=O)N1CCN(Cc2cccnc2)CC1` | 3.684% |
| 20 | `Cc1nc(C)n(CC2CCCN2Cc2nc3ccccc3o2)n1` (stereo unspecified) | 14.61% |
| 21 | `Cc1ccc(CNC(=O)NCc2cccnc2N(C)C)s1` | 10.93% |
| 22 | `CCn1ccnc1CN(C)Cc1nc(Cc2ccccc2F)no1` | 10.31% |
| 23 | `CC(O)c1cn(Cc2ccc(F)cc2)nn1` (stereo unspecified) | 15.09% |
| 24 | `Cc1nc2c(c(C)c1CC(=O)Nc1ccnn1C(C)C)c(=O)[nH]n2C` | 12.94% |
| 25 | `COCCC1(CNC(=O)Nc2ccnc(C)c2)CCCC1` | 8.732% |
| 26 | `Cc1sc(Oc2ccccc2Cl)nc1C(=O)O` | 11.63% |
| 27 | `CC(c1cccnc1)N(C)Cc1csc(-c2ccccn2)n1` (stereo unspecified) | 4.433% |
| 28 | `COc1ccc(Cc2ncc3c(n2)CN(C(=O)CN(C)C)C3)cc1` | 4.8% |
| 29 | `COc1ccc(CNC(=O)N2CCCN(CC3CCCCC3)CC2)cn1` | 15.16% |
| 30 | `COCC(=O)N1CCC2(CC1)CN(S(C)(=O)=O)Cc1ccccc1O2` | 9.006% |
| 31 | `CCOc1ccc(CC(CNC(=O)c2ccc(C)s2)C(N)=O)cc1` (stereo unspecified) | 5.842% |
| 32 | `Cc1cc(CN(C)C(=O)NC2CCC(O)CC2)no1` (stereo unspecified) | 7.216% |
| 33 | `Cc1ccc(NC(=O)Cn2cc(I)cn2)cc1C` | 0% |
| 34 | `O=C(c1cnc(-c2cccnc2)nc1)N1CCC(c2ccncc2)CC1` | 11.63% |
| 35 | `COCc1ncc(CN2CCC(Oc3ccccc3OC)CC2)cn1` | 7.407% |
| 36 | `c1ccc2c(Cc3nnc([C@H]4CCN(C5CCOCC5)C4)o3)c[nH]c2c1` | 11.28% |
| 37 | `Cc1ncsc1CCN(C)C(=O)CN1CCCCCC1=O` | 10.51% |
| 38 | `COc1ccc(CNCc2ccnc(N3CCOCC3)c2)c(OC)c1` | 13.07% |
| 39 | `Cc1ccc(C(=O)N2CC[C@@H]3[C@H]2CCC(=O)N3CCN(C)C)cn1` | 3.623% |
| 40 | `O=C(Nc1ccccc1F)N(CCO)Cc1ccsc1` | 2.041% |
| 41 | `CN(Cc1ccccc1)c1ncccc1CNC1CN2CCC1CC2` (stereo unspecified) | 25.81% |
| 42 | `CN(C)Cc1csc(-c2nccn2Cc2ccc(C(=O)O)cc2)c1` | 3.75% |
| 43 | `CN(Cc1nc(C2CC2)no1)C1CCS(=O)(=O)C1` (stereo unspecified) | 10.57% |
| 44 | `CC(=O)N1CCC(Nc2cccc(OC(F)F)c2C)CC1` | 11.59% |
| 45 | `CCc1nc(CN2CCCC(NCc3cc(C)no3)C2)no1` (stereo unspecified) | 10.42% |
| 46 | `O=C(CN1CCN(CC(O)C2CC2)CC1)NCc1ccccc1` (stereo unspecified) | 8.168% |
| 47 | `CNC(=O)C1CCN(C(=O)c2ccn(-c3ccc(F)cc3)n2)CC1` | 9.206% |
| 48 | `CCC(COC)NC(=O)N1CCC(n2ccc(C(F)(F)F)n2)CC1` (stereo unspecified) | 16.17% |
| 49 | `O=C(c1c[nH]cn1)N1CCC(n2cc(-c3ccsc3)nn2)CC1` | 11.73% |
| 50 | `CC(C)[C@H](CO)Nc1nccc(-c2c[nH]nc2-c2ccncc2)n1` | 5.583% |
| 51 | `Cc1cc(N2CCN(Cc3cn(C)nc3C)CC2)cc(C2CCCN2)n1` (stereo unspecified) | 15.22% |
| 52 | `COc1cccn(CC(=O)N(C)CCSC)c1=O` | 15.27% |
| 53 | `O=C1CC2(CCN(CCO)C2)CN1c1cccc(F)c1` (stereo unspecified) | 12.03% |
| 54 | `Cc1nc(C(=O)N2CC(C)Sc3ccccc32)cs1` (stereo unspecified) | 15.19% |
| 55 | `Cn1ccnc1Sc1ncc(C(=O)N2CCCCC2)cc1Cl` | 0.7371% |
| 56 | `COCCn1cc(C(=O)Nc2nc3c(s2)CCC3)c2ccccc21` | 23.82% |
| 57 | `Fc1cnc(N2CCCC3(CCN(Cc4nccs4)C3)C2)nc1` (stereo unspecified) | 3.333% |
| 58 | `Cc1c[nH]c(CN2CCCCC2CCn2cccn2)c(C)c1=O` (stereo unspecified) | 13.17% |
| 59 | `CC(=O)Nc1nc(C(=O)NC(C)c2ccc(C#N)cc2)cs1` (stereo unspecified) | 5.842% |
| 60 | `CCCc1nc(C(C)(C)NC(=O)C2CC(=O)N(CC)C2)no1` (stereo unspecified) | 20.11% |
| 61 | `CCn1cnnc1CNC(=O)N1CCC(C(=O)NC)CC1` | 1.399% |
| 62 | `CCCS(=O)(=O)N1CCC(NCc2c(C)nn(C)c2OC)CC1` | 10.99% |
| 63 | `Cc1csc(CN2CCC[C@]3(C[C@@H](OCC4CC4)CO3)C2)n1` | 14.72% |
| 64 | `CCNc1cc2c(nn1)CCN(C(=O)c1nccnc1N)C2` | 15.85% |
| 65 | `COc1ccccc1C1(CNCc2cccc(O)c2)CCOCC1` | 11.26% |
| 66 | `COC[C@@]12CCC[C@@H]1CN(C(=O)N1CCCC1)C2` | -1.099% |
| 67 | `Cc1cc(C(=O)NCc2c(C)nn(C)c2C)nc(N2CCOCC2)n1` | -1.657% |
| 68 | `Cc1cc(Nc2ccc3c(c2)CC(=O)N3)nc(C2CC2)n1` | 28.43% |
| 69 | `CCOCCN1CCN(CC(O)c2ccc(OC)cc2)CC1` (stereo unspecified) | -2.687% |
| 70 | `COc1ncc(C2(O)CCN(Cc3cc(F)ccc3F)CC2)c(OC)n1` | 8.706% |
| 71 | `NC(=O)c1ccc(C2CCCN2C(=O)CCn2nnc3ccccc32)s1` (stereo unspecified) | 20% |
| 72 | `NCC(=O)N1CCC(c2ccnc(Nc3cc(C(F)(F)F)ccn3)n2)C1` (stereo unspecified) | 7.595% |
| 73 | `O=C(N1CCCC(n2cncn2)C1)C1(c2ccc(Cl)cc2)CCC1` (stereo unspecified) | 15.36% |
| 74 | `FC(F)(F)c1n[nH]c2c1CN(Cc1cn3ccccc3n1)CC2` | 14.09% |
| 75 | `C[C@H]1CN(C(=O)c2ccc[nH]2)C[C@@]12CCN(c1ccsc1)C2=O` | 7.463% |
| 76 | `COCCN1CCC(NC(=O)NCC2(c3ccccc3)CC2)C1` (stereo unspecified) | 8.361% |
| 77 | `Nc1c(Cl)cnn1C1CCN(Cc2ccccc2)C1` (stereo unspecified) | 12.15% |
| 78 | `CC(C)CN(C)S(=O)(=O)c1ccc(Cl)cc1C#N` | 2.518% |
| 79 | `Cc1ccc(N2CCN(C(=O)COc3ccccc3)CC2)nn1` | 14.29% |
| 80 | `Cc1occc1C(=O)N1C[C@@H]2CCCO[C@@H]2[C@H](NC(=O)CC2CC2)C1` | 13.51% |
| 81 | `CC(=O)c1cc(CN2C[C@@H](NS(=O)(=O)N(C)C)[C@H](C(C)C)C2)cs1` | 4.545% |
| 82 | `Cc1nc(CN2CCN(c3nc4c(s3)c(C)nn4C)CC2)cs1` | 18.54% |
| 83 | `O=C(C1SCCc2sccc21)N1CCC(O)CC1` (stereo unspecified) | 15.24% |
| 84 | `Cc1cnc2c(S(=O)(=O)N(C)C3CCS(=O)(=O)C3)cccc2c1` (stereo unspecified) | 20% |
| 85 | `COc1ccccc1C(=O)N(C)C1CCN(c2ccccn2)CC1` | 24.31% |
| 86 | `O=c1c2cccnc2cnn1CC(O)c1cccc(Cl)c1` (stereo unspecified) | 5.263% |
| 87 | `Cc1nc(CN2CCCN(C(=O)c3cnccn3)CC2)cs1` | 11.75% |
| 88 | `COc1ccc(-c2noc([C@@H]3C[C@@H](O)CN3C3CCOCC3)n2)cc1` | -4.407% |
| 89 | `O=C(CCn1cnnn1)N1CCCC(CO)(CCc2ccccc2)C1` (stereo unspecified) | 2.115% |
| 90 | `CN1CCN(CCCN(C)S(=O)(=O)C2CCCCC2)CC1` | 12.89% |
| 91 | `CCc1ocnc1C(=O)N1CCC2(CCCN(CC(C)(C)C)C2=O)C1` (stereo unspecified) | 6.984% |

Once more, the final 10:

- Cc1nc(CN2CCN(c3nc4c(s3)c(C)nn4C)CC2)cs1 | 18.54%
- O=C(C1SCCc2sccc21)N1CCC(O)CC1 (stereo unspecified) | 15.24%
- Cc1cnc2c(S(=O)(=O)N(C)C3CCS(=O)(=O)C3)cccc2c1 (stereo unspecified) | 20%
- COc1ccccc1C(=O)N(C)C1CCN(c2ccccn2)CC1 | 24.31%
- O=c1c2cccnc2cnn1CC(O)c1cccc(Cl)c1 (stereo unspecified) | 5.263%
- Cc1nc(CN2CCCN(C(=O)c3cnccn3)CC2)cs1 | 11.75%
- COc1ccc(-c2noc([C@@H]3C[C@@H](O)CN3C3CCOCC3)n2)cc1 | -4.407%
- O=C(CCn1cnnn1)N1CCCC(CO)(CCc2ccccc2)C1 (stereo unspecified) | 2.115%
- CN1CCN(CCCN(C)S(=O)(=O)C2CCCCC2)CC1 | 12.89%
- CCc1ocnc1C(=O)N1CCC2(CCCN(CC(C)(C)C)C2=O)C1 (stereo unspecified) | 6.984%

The values are deposited in ChEMBL (CHEMBL3988442, “University of Dundee, Small-Polar-MMV Screening Library” (2021)).